# The supplement of paper PMC6411743
# ± gives the standard deviation of the averaged measurements. The list shows a part of the results.
# Tests used:
# Test in all cases: NP40-soluble protein abundance relative to vehicle (solubility fold change) (ratio); higher = more soluble protein in presence of GTP
# [1] = target: T1, H0Y2Y8 and related entries (UniProt Q15942)
# T1 sequence (whole entry): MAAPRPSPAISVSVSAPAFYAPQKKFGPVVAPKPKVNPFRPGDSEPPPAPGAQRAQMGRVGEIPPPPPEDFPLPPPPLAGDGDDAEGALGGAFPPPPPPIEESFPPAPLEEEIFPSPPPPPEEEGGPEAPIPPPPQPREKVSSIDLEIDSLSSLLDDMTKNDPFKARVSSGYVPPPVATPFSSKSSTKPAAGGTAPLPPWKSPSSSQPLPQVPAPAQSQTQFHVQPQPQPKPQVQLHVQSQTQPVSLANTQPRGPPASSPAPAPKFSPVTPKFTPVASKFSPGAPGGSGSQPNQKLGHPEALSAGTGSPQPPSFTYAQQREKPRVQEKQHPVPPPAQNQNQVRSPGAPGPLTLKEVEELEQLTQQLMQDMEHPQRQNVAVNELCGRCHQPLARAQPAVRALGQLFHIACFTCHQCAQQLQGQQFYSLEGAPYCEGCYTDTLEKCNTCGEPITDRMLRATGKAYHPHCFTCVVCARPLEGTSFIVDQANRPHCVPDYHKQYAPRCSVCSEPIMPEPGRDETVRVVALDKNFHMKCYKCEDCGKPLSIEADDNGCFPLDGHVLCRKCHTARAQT
# Summary of the method: (§1)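 Eight concentrations, 0.1 to 10 mM, were tested on Jurkat crude lysate for 10 min at room temperature and then 3 min at 37 °C, in three independent experiments. The lysate was solubilised with 0.8% NP40 and benzonase, ultracentrifuged, and the supernatant TMT-labelled for LC-MS/MS. Each value is the fold change against the detergent-processed vehicle in its own replicate, from vsn-normalised intensities.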
# [2] = target: T2, H0Y4R2 and related entries (UniProt P16435)
# T2 sequence (whole entry): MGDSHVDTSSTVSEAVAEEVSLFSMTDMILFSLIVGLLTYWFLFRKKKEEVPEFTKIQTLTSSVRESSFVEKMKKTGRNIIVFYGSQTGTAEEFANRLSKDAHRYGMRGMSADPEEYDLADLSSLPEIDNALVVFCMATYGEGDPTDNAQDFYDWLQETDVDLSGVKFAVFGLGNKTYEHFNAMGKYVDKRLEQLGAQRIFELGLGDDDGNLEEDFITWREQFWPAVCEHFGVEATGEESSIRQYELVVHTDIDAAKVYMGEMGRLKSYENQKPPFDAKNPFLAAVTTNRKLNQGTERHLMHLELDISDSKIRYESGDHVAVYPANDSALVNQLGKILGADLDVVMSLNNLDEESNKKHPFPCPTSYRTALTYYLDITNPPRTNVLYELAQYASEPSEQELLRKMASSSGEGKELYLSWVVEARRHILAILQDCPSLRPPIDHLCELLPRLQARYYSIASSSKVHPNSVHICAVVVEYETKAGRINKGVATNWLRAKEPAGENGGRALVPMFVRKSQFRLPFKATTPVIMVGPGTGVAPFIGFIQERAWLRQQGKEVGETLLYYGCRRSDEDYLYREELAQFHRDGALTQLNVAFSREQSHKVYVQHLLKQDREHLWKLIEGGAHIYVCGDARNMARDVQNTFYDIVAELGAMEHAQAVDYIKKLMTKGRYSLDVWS
# Summary of the method: as §1
# [3] = target: T3, H0Y6I6 and related entries (UniProt Q96ME1)
# T3 sequence (whole entry): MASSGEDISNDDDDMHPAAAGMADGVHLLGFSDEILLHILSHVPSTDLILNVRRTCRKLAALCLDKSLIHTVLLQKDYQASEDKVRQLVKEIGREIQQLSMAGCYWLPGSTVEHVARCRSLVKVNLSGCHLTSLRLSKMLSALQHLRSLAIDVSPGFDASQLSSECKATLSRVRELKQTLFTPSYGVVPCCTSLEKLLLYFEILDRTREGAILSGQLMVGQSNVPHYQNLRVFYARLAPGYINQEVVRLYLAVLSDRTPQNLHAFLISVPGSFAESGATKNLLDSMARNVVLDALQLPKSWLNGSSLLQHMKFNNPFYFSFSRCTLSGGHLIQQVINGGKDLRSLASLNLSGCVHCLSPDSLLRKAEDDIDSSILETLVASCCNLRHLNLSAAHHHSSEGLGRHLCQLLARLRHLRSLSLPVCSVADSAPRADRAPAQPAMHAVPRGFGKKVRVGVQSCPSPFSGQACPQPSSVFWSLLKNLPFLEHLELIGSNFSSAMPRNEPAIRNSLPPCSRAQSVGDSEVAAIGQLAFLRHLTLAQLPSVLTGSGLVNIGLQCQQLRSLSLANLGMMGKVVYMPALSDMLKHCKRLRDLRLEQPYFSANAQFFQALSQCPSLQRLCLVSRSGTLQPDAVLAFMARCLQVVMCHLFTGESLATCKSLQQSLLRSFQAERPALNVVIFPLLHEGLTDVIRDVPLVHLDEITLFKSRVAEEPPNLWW
# Summary of the method: as §1
# [4] = target: T4, H0YBI6 and related entries (UniProt Q86VQ6)
# T4 sequence (whole entry): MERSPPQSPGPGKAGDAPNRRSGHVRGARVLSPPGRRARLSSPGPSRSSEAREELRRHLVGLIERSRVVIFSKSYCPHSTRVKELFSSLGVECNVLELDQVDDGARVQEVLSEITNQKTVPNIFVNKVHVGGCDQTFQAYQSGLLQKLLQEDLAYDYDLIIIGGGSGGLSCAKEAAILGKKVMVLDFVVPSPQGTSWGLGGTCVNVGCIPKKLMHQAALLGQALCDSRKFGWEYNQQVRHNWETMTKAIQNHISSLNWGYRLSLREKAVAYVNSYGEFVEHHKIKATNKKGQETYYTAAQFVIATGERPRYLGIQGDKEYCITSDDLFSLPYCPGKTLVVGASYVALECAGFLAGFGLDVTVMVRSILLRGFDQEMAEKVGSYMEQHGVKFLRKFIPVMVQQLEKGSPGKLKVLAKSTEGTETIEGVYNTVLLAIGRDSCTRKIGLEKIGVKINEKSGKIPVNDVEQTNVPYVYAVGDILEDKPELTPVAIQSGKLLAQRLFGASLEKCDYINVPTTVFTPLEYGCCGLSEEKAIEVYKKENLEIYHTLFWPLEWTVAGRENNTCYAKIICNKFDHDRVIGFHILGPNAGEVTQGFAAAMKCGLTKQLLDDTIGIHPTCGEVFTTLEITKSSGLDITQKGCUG
# Summary of the method: as §1
# [5] = target: T5, H0YMI4 and related entries (UniProt Q9Y6I4)
# T5 sequence (whole entry): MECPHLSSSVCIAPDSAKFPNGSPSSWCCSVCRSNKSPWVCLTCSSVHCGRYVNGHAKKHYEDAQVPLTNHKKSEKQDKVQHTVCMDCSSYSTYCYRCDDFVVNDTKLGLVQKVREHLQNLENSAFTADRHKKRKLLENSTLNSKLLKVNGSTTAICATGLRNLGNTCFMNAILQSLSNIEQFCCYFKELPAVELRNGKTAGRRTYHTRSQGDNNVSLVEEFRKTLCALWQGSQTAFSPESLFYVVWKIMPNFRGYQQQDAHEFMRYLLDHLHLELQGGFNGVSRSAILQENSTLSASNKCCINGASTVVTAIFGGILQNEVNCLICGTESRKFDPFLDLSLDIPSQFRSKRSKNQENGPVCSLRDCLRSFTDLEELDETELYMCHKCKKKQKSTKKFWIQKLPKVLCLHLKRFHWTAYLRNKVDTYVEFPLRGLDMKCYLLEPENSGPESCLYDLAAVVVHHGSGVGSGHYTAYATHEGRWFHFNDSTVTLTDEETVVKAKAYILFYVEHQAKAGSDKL
# Summary of the method: as §1
# [6] = target: T6, H3BRB6 and related entries (UniProt Q8ND25)
# T6 sequence (whole entry): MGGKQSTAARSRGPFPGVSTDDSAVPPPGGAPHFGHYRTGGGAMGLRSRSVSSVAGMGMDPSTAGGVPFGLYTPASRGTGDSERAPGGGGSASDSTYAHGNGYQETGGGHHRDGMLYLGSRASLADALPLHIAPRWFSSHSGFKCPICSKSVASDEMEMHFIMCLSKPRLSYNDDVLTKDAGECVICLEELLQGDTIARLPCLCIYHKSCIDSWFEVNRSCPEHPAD
# Summary of the method: as §1
smiles,measurement,setting,value
Nc1nc2c(ncn2[C@@H]2O[C@H](COP(=O)(O)OP(=O)(O)OP(=O)(O)O)[C@@H](O)[C@H]2O)c(=O)[nH]1 [guanosine triphosphate],NP40-soluble protein abundance,[1]; concentration: 0.1mM,0.956 ± 0.032
same,NP40-soluble protein abundance,[1]; concentration: 0.5mM,0.94 ± 0.068
same,NP40-soluble protein abundance,[1]; concentration: 1mM,0.983 ± 0.07
same,NP40-soluble protein abundance,[1]; concentration: 2mM,0.926 ± 0.1
same,NP40-soluble protein abundance,[1]; concentration: 4mM,0.923 ± 0.085
same,NP40-soluble protein abundance,[1]; concentration: 6mM,0.923 ± 0.1
same,NP40-soluble protein abundance,[1]; concentration: 8mM,0.935 ± 0.073
same,NP40-soluble protein abundance,[1]; concentration: 10mM,0.919 ± 0.072
same,NP40-soluble protein abundance,[2]; concentration: 0.1mM,0.9681 ± 0.0095
same,NP40-soluble protein abundance,[2]; concentration: 0.5mM,1.04 ± 0.035
same,NP40-soluble protein abundance,[2]; concentration: 1mM,0.907 ± 0.046
same,NP40-soluble protein abundance,[2]; concentration: 2mM,0.938 ± 0.014
same,NP40-soluble protein abundance,[2]; concentration: 4mM,0.912 ± 0.045
same,NP40-soluble protein abundance,[2]; concentration: 6mM,0.915 ± 0.021
same,NP40-soluble protein abundance,[2]; concentration: 8mM,0.89 ± 0.045
same,NP40-soluble protein abundance,[2]; concentration: 10mM,0.927 ± 0.046
same,NP40-soluble protein abundance,[3]; concentration: 0.1mM,1.07 ± 0.076
same,NP40-soluble protein abundance,[3]; concentration: 0.5mM,1.03 ± 0.044
same,NP40-soluble protein abundance,[3]; concentration: 1mM,0.919 ± 0.056
same,NP40-soluble protein abundance,[3]; concentration: 2mM,0.992 ± 0.057
same,NP40-soluble protein abundance,[3]; concentration: 4mM,0.951 ± 0.11
same,NP40-soluble protein abundance,[3]; concentration: 6mM,0.923 ± 0.086
same,NP40-soluble protein abundance,[3]; concentration: 8mM,0.928 ± 0.072
same,NP40-soluble protein abundance,[3]; concentration: 10mM,0.968 ± 0.059
same,NP40-soluble protein abundance,[4]; concentration: 0.1mM,1.11 ± 0.077
same,NP40-soluble protein abundance,[4]; concentration: 0.5mM,1.18 ± 0.19
same,NP40-soluble protein abundance,[4]; concentration: 1mM,1.1 ± 0.077
same,NP40-soluble protein abundance,[4]; concentration: 2mM,1.21 ± 0.2
same,NP40-soluble protein abundance,[4]; concentration: 4mM,1.26 ± 0.19
same,NP40-soluble protein abundance,[4]; concentration: 6mM,1.11 ± 0.26
same,NP40-soluble protein abundance,[4]; concentration: 8mM,1.11 ± 0.26
same,NP40-soluble protein abundance,[4]; concentration: 10mM,1.06 ± 0.17
same,NP40-soluble protein abundance,[5]; concentration: 0.1mM,1.1 ± 0.03
same,NP40-soluble protein abundance,[5]; concentration: 0.5mM,1.09 ± 0.061
same,NP40-soluble protein abundance,[5]; concentration: 1mM,1.07 ± 0.12
same,NP40-soluble protein abundance,[5]; concentration: 2mM,1.06 ± 0.071
same,NP40-soluble protein abundance,[5]; concentration: 4mM,1.07 ± 0.13
same,NP40-soluble protein abundance,[5]; concentration: 6mM,1.02 ± 0.081
same,NP40-soluble protein abundance,[5]; concentration: 8mM,1.02 ± 0.06
same,NP40-soluble protein abundance,[5]; concentration: 10mM,0.965 ± 0.069
same,NP40-soluble protein abundance,[6]; concentration: 0.1mM,0.978 ± 0.042
same,NP40-soluble protein abundance,[6]; concentration: 0.5mM,0.894 ± 0.011
same,NP40-soluble protein abundance,[6]; concentration: 1mM,0.965 ± 0.037
same,NP40-soluble protein abundance,[6]; concentration: 2mM,0.945 ± 0.045
same,NP40-soluble protein abundance,[6]; concentration: 4mM,0.917 ± 0.024
same,NP40-soluble protein abundance,[6]; concentration: 6mM,0.916 ± 0.038
same,NP40-soluble protein abundance,[6]; concentration: 8mM,0.901 ± 0.056
same,NP40-soluble protein abundance,[6]; concentration: 10mM,0.894 ± 0.038

# Four records picked at random from those above:
smiles,measurement,setting,value
Nc1nc2c(ncn2[C@@H]2O[C@H](COP(=O)(O)OP(=O)(O)OP(=O)(O)O)[C@@H](O)[C@H]2O)c(=O)[nH]1 [guanosine triphosphate],NP40-soluble protein abundance,[4]; concentration: 10mM,1.06 ± 0.17
same,NP40-soluble protein abundance,[2]; concentration: 0.5mM,1.04 ± 0.035
same,NP40-soluble protein abundance,[6]; concentration: 4mM,0.917 ± 0.024
same,NP40-soluble protein abundance,[4]; concentration: 8mM,1.11 ± 0.26
